PubChem BioAssay AID602196 | INSERM, 2012
Assay: 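Modifiers of cisplatin sensitivity in A549 cells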. Cell system: human A549 lung cancer cells. Reagents: siRNA pair against human genes. Timing: 48 h transfection before cisplatin; time from cisplatin to read-out not stated. Challenge: cisplatin at a dose killing half of control-siRNA cells; exact dose and duration not given. Measured: 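Cisplatin cell death as a shift from the 50% death seen with control siRNA; siRNAs toxic or growth-blocking alone scored 0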. Scale: two-siRNA summed score (-2 to +2): higher = both siRNAs protect from cisplatin killing; -2 means both sensitise; mean protection from cisplatin (shift in death) and protection from cisplatin (shift in death), siRNA C: higher = protection from cisplatin killing. Call rule: 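siRNAs harmful alone (LDH or WST-1) get 0; others get +1 for less and -1 for more cisplatin killing; genes are active when the two siRNAs give the same sign, summing to ±2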. Calls: active = both siRNAs shift cisplatin killing the same way; inactive = no consistent shift, or siRNA harmful alone.
Shown is an unselected part of about 23,000 deposited reagents. Over the whole deposit, 455 (2%) are marked active. 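Active includes both protection and sensitisation; some change values fall well beyond the stated -50 to +50 range.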 A number with no mark means an inactive call. Further read-outs or replicates are left out here. Not stated in the record: the amount of reagent.

| Gene | two-siRNA summed score (-2 to +2) | mean protection from cisplatin (shift in death) (%) | protection from cisplatin (shift in death), siRNA C (%) |
| --- | --- | --- | --- |
| CLDN8 | 0 | 6.8 | 9.7 |
| ILF3 | 0 | -1.7 | -2 |
| TAS2R31 | 0 | 2 | -4.9 |
| LOC197135 | 0 | 31.5 | 55.3 |
| BTBD1 | 0 | 7.9 | 4.3 |
| ITGB1 | 0 | 1.6 | -0.8 |
| THAP2 | 0 | -1.3 | -2.5 |
| TUBGCP4 | 0 | 5.5 | 1.9 |
| KRTAP12-1 | 0 | -2.5 | 0 |
| LOC440841 | 0 | 25.2 | 39.5 |
| LOC441312 | 0 | 8.2 | 7.6 |
| MYL2 | 2 (active) | 20.8 | 19.3 |
| LINC01011 | 1 | 21.1 | 37.3 |
| PRRG2 | 0 | 0.3 | 17.3 |
| PARP4 | 0 | -6.4 | -2.6 |
| PTPRE | 0 | -3.2 | -8 |
| DARS1 | 0 | 4.4 | 4 |
| CDH10 | 1 | 6.2 | -9.1 |
| ZNF823 | 1 | 10.8 | 2.2 |
| MTCH1 | 1 | 10.9 | 23 |
| SF3B4 | 0 | 11.2 | 21.9 |
| LOC440098 | 0 | 11.9 | 19.9 |
| LOC388011 | 0 | 1.4 | 15.9 |
| LOC153778 | 0 | 4.8 | 5.6 |
| KDM2A | -1 | -14.8 | -8.4 |
| PYY | 0 | 8.4 | 10.5 |
| CFL2 | -1 | -22.4 | -19.2 |
| FAT2 | 0 | -6.5 | 0.1 |
| TNMD | 0 | -0.6 | -2.4 |
| NOL4 | 0 | 5.1 | 14.7 |
| LOC389683 | 0 | 12.9 | 12.9 |
| LOC400957 | 0 | 6.9 | 3.6 |
| LHX3 | -1 | -6.6 | -23.5 |
| SCYL3 | 0 | -1.2 | 0.6 |
| OR51F2 | 0 | 8.5 | 10.7 |
| UBL4B | 0 | 13.8 | 23.4 |

Entries above marked active:
| Gene | two-siRNA summed score (-2 to +2) | mean protection from cisplatin (shift in death) (%) | protection from cisplatin (shift in death), siRNA C (%) |
| --- | --- | --- | --- |
| MYL2 | 2 (active) | 20.8 | 19.3 |

Continued:
| Gene | two-siRNA summed score (-2 to +2) | mean protection from cisplatin (shift in death) (%) | protection from cisplatin (shift in death), siRNA C (%) |
| --- | --- | --- | --- |
| DOP1A | 0 | 0.6 | -4.9 |
| EOMES | 0 | 3 | -2.5 |
| KPNA2 | -1 | -20.5 | -19.2 |
| SPINK1 | -1 | -16 | -15.4 |
| AKR1B10 | 0 | 4 | -0.1 |
| SCN3B | 0 | 3.8 | -0.3 |
| MARVELD3 | 1 | 24.2 | 34.2 |
| LOC440975 | 0 | 2.7 | 5.6 |
| RHBDL2 | 0 | -1.4 | 6.7 |
| LOC401584 | 1 | 16.1 | 10.9 |
| CPN2 | -1 | -10.7 | -21.7 |
| EPB41L3 | 0 | 13.1 | 13.7 |
| KRT33B | -2 (active) | -17.3 | -17.2 |
| LINC02487 | 0 | -0.9 | 2.1 |
| ZBTB12 | 1 | 10.5 | 8.9 |
| LOC389437 | 0 | 4.5 | 4.3 |
| LOC400400 | 0 | 3 | 10.1 |
| CDRT4 | 1 | 7.2 | -6 |
| C1QL1 | 0 | 7.7 | 8.6 |
| LOC339005 | 0 | 3.4 | 7.8 |
| SASS6 | 1 | 19.2 | 20.9 |
